Reference: patent US8293479B2, “Use of parathyroid hormone-related protein(PTHRP) in the diagnosis and treatment of chronic lung disease and other pathologies” (Los Angeles Biomedical Research Institute at Harbor UCLA …, priority 2002, dated 2012)
For at least one compound, name, drawing or mass did not settle the structure.

Tests used:
d18 FRLFs = assay: Antioxidant pretreatment of FRLFs exposed to hyperoxia, ADRP mRNA expression; type: cell-based, rat; settings: 95% O2 for 24 h, one hour antioxidant pretreatment
[1] = test system: One-day-old rat (Sprague-dawley) pups; assay: Hyperoxia-induced lipofibroblast-to-myofibroblast transdifferentiation in neonatal rat pups in vivo, lung mRNA (RT-PCR) and protein (Western)

SMILES | prevention of hyperoxia-induced decrease in ADRP mRNA expression (d18 FRLFs) | prevention of hyperoxia-induced decreases in PPARgamma, ADRP, PTHrPR, CP-CYT expression and increase in alpha SMA expression ([1]; 1 mg/kg intraperitoneally at beginning of 24 h hyperoxia (95% O2+5% CO2)) | prevention of hyperoxia-induced decreases in PPARgamma, ADRP, PTHrPR, CP-CYT expression and increase in alpha SMA expression ([1]; 3 mg/kg intraperitoneally at beginning of 24 h hyperoxia (95% O2+5% CO2))
O=C1O[C@H]([C@@H](O)CO)C(O)=C1O [ascorbate] | ineffective |  | 
CN(CCOc1ccc(CC2SC(=O)NC2=O)cc1)c1ccccn1 (stereo not drawn) [rosiglitazone] |  | partially | completely
